Test results as given in PubChem BioAssay AID2728 (Broad Institute, 2010).
The inconclusive results got no clear call from the source; some entries with a clear call stand among them for comparison. The source made the active and inactive calls.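 Rule for the calls: active = every replicate shows growth inhibition above 50%; inconclusive = at least half but not all replicates above 50% inhibition; inactive = under half of replicates above 50% inhibition.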

Assay: growth inhibition of V. harveyi BB721, confirmation, cytotoxicity control for AI-2 quorum sensing inhibitors, strain BB721, absorbance OD600 (AID 2728)
Conditions: Vibrio harveyi BB721 growth, 9 h, at 7.5 µM, active compounds read high

SMILES | growth inhibition
Cc1ccc(CN(C)C(=O)c2cc(COc3cccc(C(F)(F)F)c3)on2)o1 | active: 86.6%
CCSc1nsc(NC(=O)Nc2ccc(F)cc2F)n1 | inconclusive: 61.9%
CCc1cccc(OCC(=O)Nc2ccc(S(=O)(=O)N3CCCC3)cc2)c1 | inconclusive: 50.3%
Cc1ccc(-c2ccc(/C=N/NC(N)=S)o2)cc1 | inconclusive: 46.3%
CCOC(=O)Oc1ccc2c(=O)c(Oc3cccc(C)c3)coc2c1 | inconclusive: 74.1%
Cc1ccc(Oc2ccc(NC(=O)c3ccco3)cc2)cc1 | inconclusive: 75.1%
CN(C)S(=O)(=O)c1ccc(C(=O)OCn2nnc3ccccc3c2=O)cc1 | inactive: 37.1%
CCOc1ccc(NC(=O)CN2C(=O)NC(C)(c3ccc(OC(F)F)cc3)C2=O)cc1 (centres undefined) | active: 56.8%
Cc1cccc(/C(N)=N/OC(=O)c2cccc3ccccc23)c1 | inconclusive: 51.3%
CC(C)c1ccc(NC(=O)COc2nncc3ccccc23)cc1 | inconclusive: 46.7%
CC(=O)Nc1ccc(C(=O)OCc2ccc(Br)cc2)cc1 | inconclusive: 45.5%
Cc1sc2ncnc(OCC(=O)c3ccc(S(=O)(=O)N4CCCC4)cc3)c2c1C | active: 68.9%
COc1ccc(CC(=O)O/N=C(\N)c2ccccn2)cc1 | inactive: 3.05%
COC(=O)c1ccc(Oc2ccc(C(C)(C)C)cc2)c([N+](=O)[O-])c1 | inconclusive: 36.6%
O=S1(=O)C=C(Oc2ccc3ccccc3c2)c2ccccc21 | inactive: -17.4%
O=C(/C=C/c1ccccc1)NNc1ccc(Cl)cc1 | inconclusive: 53.7%
O=c1c2c(-c3ccccc3)csc2nc2c3ccccc3c(NCCN3CCOCC3)nn12 | inconclusive: 71.3%
COc1cccc(OCc2cc(C(=O)NCc3ccc4c(c3)OCO4)no2)c1 | inconclusive: 40.8%
Cc1ccccc1C(=O)Nc1ccc(N2CCCCCC2)cc1 | inconclusive: 51.4%
O=C(OC1CCCCC1)c1ccc(NC(=O)c2ccco2)cc1 | inconclusive: 55.1%
CN(C)S(=O)(=O)c1ccc(NC(=O)COc2ncnc3c2cnn3-c2ccccc2)cc1 | inactive: 16%
Cc1cccc(NC(=O)CCOc2ccccc2)c1 | inactive: -6.47%
COc1ccc(CNC(=O)Nc2ccc(C)cc2)cc1 | inactive: -14.1%
Cc1cccc(-c2nnc(SCc3ccccc3)o2)c1 | inconclusive: 49%

Quoted from the listing.
Value for Cc1cccc(/C(N)=N/OC(=O)c2cccc3ccccc23)c1 under growth inhibition: inconclusive: 51.3%
Value for Cc1cccc(NC(=O)CCOc2ccccc2)c1 under growth inhibition: inactive: -6.47%
